Reference: article PMC4719301
These are yes or no findings as the source states them, for the method shown. Binding seen in cells or lysates may run through a third protein. A yes stands for co-enrichment or nearness to the bait. Other partners may have been found.

Protein sequences, listed by entry. Tags and fused reporters are not part of them.
UniProt P47941: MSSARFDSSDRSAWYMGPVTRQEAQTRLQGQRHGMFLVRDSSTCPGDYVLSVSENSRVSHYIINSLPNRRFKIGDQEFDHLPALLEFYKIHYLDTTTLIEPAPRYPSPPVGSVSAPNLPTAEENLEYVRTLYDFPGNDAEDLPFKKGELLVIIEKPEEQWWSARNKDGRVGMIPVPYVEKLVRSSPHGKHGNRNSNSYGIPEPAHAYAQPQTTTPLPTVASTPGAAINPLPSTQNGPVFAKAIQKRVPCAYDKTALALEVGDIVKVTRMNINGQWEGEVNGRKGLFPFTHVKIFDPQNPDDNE
UniProt Q69Z38: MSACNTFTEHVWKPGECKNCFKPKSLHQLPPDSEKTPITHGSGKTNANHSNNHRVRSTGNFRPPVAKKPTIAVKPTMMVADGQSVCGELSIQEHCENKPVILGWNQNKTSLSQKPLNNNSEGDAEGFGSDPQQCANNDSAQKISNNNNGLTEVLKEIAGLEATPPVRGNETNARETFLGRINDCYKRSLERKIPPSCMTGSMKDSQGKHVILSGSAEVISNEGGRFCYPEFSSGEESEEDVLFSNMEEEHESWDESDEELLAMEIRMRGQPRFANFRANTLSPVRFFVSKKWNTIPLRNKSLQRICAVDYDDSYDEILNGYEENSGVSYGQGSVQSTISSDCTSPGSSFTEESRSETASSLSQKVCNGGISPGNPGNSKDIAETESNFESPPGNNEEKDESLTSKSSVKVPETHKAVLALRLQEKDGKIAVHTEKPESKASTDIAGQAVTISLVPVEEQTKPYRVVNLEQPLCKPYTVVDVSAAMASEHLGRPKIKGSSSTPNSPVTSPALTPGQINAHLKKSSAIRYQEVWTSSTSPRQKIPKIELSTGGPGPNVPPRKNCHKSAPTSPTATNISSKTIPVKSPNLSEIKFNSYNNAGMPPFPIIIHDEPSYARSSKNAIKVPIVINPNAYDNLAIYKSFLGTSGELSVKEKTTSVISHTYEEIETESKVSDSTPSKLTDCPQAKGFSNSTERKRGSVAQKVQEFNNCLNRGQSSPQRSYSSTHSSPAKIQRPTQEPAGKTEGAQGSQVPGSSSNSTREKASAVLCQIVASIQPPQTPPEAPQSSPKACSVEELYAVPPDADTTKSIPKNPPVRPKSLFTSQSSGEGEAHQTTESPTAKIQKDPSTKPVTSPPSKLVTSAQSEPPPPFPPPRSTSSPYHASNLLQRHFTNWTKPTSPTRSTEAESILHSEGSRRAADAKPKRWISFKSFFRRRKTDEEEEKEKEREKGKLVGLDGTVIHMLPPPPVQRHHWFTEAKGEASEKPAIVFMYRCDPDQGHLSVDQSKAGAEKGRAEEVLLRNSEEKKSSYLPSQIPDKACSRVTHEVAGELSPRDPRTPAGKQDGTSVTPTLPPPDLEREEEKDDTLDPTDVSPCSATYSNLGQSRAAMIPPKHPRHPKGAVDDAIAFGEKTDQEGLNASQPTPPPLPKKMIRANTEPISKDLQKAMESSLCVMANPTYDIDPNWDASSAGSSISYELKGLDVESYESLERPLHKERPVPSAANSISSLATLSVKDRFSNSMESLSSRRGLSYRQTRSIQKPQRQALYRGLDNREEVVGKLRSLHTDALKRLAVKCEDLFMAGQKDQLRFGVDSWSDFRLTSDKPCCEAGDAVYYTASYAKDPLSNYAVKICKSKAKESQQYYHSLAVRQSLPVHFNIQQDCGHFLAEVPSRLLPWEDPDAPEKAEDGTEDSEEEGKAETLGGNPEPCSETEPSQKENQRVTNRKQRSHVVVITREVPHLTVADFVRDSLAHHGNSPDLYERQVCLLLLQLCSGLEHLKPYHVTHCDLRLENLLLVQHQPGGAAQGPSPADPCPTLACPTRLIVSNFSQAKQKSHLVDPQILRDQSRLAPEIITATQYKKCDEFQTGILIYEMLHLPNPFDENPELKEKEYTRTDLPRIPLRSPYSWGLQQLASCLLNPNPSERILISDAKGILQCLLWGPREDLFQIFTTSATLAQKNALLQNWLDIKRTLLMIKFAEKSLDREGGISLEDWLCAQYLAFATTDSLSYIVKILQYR
UniProt Q920M5: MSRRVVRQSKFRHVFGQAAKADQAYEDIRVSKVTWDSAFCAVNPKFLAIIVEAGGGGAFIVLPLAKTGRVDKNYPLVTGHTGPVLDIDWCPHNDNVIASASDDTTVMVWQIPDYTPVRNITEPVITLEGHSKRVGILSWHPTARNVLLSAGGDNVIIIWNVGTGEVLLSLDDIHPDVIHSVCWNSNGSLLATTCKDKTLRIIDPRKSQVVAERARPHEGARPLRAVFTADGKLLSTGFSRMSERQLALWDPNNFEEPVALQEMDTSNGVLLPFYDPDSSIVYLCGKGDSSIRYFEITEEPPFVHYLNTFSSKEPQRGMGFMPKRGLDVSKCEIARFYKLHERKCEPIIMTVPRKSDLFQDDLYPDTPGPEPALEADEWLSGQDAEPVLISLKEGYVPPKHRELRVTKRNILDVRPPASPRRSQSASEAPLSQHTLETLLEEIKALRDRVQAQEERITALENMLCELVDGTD
UniProt E9Q6R7: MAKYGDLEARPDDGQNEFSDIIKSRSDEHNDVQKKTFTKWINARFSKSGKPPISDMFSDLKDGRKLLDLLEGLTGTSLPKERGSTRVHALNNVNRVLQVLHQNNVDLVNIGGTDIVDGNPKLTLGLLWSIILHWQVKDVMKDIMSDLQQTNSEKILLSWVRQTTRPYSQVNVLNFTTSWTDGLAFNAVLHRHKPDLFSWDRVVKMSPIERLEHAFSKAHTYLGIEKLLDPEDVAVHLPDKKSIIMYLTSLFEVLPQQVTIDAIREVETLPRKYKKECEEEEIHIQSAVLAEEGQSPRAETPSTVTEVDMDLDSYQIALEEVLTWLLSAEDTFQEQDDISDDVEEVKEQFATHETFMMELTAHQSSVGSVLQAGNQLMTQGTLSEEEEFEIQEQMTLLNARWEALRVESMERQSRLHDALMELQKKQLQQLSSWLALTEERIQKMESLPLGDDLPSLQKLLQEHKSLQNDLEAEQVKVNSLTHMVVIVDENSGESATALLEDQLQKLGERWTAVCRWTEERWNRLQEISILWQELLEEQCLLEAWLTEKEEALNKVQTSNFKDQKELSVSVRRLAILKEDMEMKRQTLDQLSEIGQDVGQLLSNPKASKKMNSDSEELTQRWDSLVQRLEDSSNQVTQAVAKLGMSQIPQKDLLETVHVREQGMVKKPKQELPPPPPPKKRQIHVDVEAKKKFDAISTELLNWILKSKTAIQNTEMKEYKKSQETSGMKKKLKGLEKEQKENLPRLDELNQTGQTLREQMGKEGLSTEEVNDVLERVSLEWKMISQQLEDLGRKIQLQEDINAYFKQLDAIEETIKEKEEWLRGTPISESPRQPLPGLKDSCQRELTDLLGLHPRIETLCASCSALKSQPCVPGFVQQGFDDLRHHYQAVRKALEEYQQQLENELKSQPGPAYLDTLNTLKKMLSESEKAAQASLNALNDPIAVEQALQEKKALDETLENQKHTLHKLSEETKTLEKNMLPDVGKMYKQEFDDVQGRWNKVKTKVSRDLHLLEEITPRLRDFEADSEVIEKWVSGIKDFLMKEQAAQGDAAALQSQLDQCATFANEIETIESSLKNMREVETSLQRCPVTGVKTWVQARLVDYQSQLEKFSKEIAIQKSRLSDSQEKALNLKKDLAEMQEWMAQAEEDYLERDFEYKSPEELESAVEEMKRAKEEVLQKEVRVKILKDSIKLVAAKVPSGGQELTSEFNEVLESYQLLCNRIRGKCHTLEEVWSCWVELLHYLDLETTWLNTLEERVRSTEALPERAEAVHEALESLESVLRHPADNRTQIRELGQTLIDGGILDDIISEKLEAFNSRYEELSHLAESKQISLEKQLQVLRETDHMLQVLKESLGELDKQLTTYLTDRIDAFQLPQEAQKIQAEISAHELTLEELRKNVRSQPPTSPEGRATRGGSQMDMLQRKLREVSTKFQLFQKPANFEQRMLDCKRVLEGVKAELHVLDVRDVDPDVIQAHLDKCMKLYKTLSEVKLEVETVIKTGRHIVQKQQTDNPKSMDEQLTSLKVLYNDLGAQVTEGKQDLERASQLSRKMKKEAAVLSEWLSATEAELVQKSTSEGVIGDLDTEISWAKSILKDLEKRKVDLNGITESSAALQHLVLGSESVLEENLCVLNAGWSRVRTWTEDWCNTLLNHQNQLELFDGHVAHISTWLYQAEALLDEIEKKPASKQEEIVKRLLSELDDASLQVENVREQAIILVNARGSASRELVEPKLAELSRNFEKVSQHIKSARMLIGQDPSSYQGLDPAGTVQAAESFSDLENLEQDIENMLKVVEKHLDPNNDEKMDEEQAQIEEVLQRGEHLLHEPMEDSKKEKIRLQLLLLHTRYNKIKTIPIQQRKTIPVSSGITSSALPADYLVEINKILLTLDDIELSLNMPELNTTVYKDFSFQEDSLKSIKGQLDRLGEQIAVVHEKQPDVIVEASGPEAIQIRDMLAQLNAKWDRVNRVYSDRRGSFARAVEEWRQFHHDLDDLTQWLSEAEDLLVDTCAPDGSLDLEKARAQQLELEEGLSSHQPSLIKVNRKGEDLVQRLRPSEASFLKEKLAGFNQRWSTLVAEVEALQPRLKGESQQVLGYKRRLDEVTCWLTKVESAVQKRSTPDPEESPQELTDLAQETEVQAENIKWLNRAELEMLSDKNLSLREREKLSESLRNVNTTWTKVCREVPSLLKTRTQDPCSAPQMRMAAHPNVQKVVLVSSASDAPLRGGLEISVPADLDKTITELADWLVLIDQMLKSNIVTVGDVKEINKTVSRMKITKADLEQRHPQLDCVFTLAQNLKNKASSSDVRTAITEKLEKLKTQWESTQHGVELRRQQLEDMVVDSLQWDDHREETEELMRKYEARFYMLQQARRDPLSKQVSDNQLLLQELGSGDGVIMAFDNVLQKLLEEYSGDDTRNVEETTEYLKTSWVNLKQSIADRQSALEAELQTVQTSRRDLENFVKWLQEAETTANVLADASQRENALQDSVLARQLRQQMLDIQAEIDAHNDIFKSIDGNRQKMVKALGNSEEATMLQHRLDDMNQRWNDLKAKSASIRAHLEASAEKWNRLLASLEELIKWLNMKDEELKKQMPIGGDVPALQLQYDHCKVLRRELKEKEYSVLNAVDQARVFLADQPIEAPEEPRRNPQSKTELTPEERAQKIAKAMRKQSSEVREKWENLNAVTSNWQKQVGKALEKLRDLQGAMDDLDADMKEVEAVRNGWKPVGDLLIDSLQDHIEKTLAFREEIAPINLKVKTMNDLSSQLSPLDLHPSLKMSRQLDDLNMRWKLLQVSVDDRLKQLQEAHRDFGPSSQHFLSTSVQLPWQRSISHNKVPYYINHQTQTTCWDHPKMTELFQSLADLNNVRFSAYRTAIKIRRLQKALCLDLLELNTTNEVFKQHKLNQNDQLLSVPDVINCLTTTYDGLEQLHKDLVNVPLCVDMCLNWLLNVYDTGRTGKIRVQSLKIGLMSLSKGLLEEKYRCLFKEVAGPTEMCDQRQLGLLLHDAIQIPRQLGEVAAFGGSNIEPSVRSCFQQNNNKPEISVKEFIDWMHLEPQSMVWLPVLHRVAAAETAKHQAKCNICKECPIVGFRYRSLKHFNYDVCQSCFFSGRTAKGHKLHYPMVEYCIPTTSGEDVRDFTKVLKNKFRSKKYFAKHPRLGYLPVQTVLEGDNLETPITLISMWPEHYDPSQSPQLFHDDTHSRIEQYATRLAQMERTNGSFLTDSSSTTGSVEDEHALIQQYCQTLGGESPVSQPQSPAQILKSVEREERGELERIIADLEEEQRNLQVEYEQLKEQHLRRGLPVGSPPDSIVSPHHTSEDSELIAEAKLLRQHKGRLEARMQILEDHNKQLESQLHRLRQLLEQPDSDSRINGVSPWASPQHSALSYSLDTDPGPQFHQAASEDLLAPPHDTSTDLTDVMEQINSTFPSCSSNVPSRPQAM

molecular target: TAP-CrkL (mouse) (UniProt P47941); assay: affinity purification with mass spectrometry; TAP-CrkL purified from lysates of transfected C2C12 myotubes; SDS-PAGE, silver stain, gel slices digested with trypsin, LC-MS/MS, iBAQ; compared with a sham control

| binding | Substance |
| --- | --- |
| binds | DOCK1 (from UniProt Q8BUR4 1-1865) |
| binds | Sgk269 (from UniProt Q69Z38 1-1735) |
| binds | coronin-6 (from UniProt Q920M5 1-471) |
| binds | utrophin (from UniProt E9Q6R7 1-3430) |
